“Also recorded” adds a separate entry of the source.
Test: H&E histology and appearance of tumor-bearing ears
Assay type: in vivo, C57BL/6 mice
Conditions: one week (day 7) of treatment, vs vehicle
Protocol: FIG. 4A-D. Enhanced inflammation is associated with CCR2 antagonism by Compound 1 in the tumor microenvironment. (A, B) Ear tissues were collected from mice treated by Compound 1 (60 mg/kg) or vehicle on day 7. Representative images for HE sections and IHC staining with anti-F4/80 were shown for the ear tissues from Compound 1 and vehicle treated group. (C, D) Ears from day 7 were also analyzed by flow cytometry to quantify the numbers of the two major myeloid subpopulations in TME with antibodies for CD11b, F4/80 and Ly6G.
H&E and Histoimmunochemistry. After mouse ear tumors were surgically removed at the ear base, the ear sample was cut into two parts along the long axis and placed in RNA later for RNA extraction or into 10% formalin for hematoxylin and eosin (H&E) staining or immunohistochemical staining with purified mouse antibodies (anti-CD8 and anti-F4/80 from Biolegend, San Diego, CA).

C[C@H]1CN([C@@H]2CC[C@@](C(=O)N3COc4c(cc(C(F)(F)F)cc4C(F)(F)F)C3)(C3CC3)OC2)CC[C@@H]1c1cccc(C(=O)O)c1 [Compound 1]
skin inflammation / lesions at the tumor site: neutrophilic abscesses and epidermal ulceration occurred; also recorded: significantly enhanced skin inflammation
